According to patent publication US12139477B2, “Compounds, salts thereof and methods for treatment of diseases” (ACADIA PHARMACEUTICALS INC., priority 2017, dated 2024):
The structures given here were assigned with low confidence; some may be wrong. The source holds more than one record for some entries. They are shown here; other results are not. An entry can have further records. Values given together read as repeated measurements (runs, samples, wells or individuals).

Amino acid sequences for entries named in this document (tags omitted).
UniProt P28223, whole entry: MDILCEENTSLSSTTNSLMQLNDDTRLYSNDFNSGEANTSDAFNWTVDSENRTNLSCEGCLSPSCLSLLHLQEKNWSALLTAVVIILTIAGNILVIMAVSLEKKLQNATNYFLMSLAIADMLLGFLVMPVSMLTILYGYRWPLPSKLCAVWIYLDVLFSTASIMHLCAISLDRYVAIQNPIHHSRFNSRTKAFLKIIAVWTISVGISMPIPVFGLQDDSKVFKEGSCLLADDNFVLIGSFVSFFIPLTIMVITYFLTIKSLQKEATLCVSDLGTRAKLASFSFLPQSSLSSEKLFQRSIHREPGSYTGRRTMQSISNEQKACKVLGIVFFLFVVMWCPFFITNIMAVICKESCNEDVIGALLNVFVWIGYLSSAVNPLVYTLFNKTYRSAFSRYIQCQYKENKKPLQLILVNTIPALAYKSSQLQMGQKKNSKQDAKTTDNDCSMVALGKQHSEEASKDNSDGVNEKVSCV

Biological target: 5HT2A (Homo sapiens, UniProt P28223)
Test: Receptor Selection and Amplification (R-SAT) functional assay
Conditions: NIH3T3 cells; Ki from IC50 by Cheng and Prussoff; tested form: TFA

## CC(C)Oc1ccc(CNC(=O)N(Cc2ccc(F)cc2F)[C@@H]2CCN(C)C[C@@H]2C)cc1 (relative stereo)
  5-HT2a (pKi) (R-SAT): 8.4 and 8.8
